# Screen size: about 31,000 sequences; about 1,400 (4.5%) were called active.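 How the source made its calls: active means median seed-adjusted z-score above 1 or below -1; inactive means the rest.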 The list shows a part of the results.
# Test: Novel Modifiers of Survival Motor Neuron (SMN) Protein: Gene Identification via Genome-wide siRNA Screen;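 further: luminescence tracks full-length SMN protein made from the SMN2 reporter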
# Settings: HEK293T SMN2-luciferase reporter, siRNA knockdown, 72 h; actives lie on both sides
# In short: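 HEK293T cells stably expressing an SMN2 splicing/cDNA-luciferase reporter were reverse-transfected with a druggable-genome siRNA library and read by luminescence at 72 hours; hits defined by MAD score above 1.0 or below -1.0.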
row,Sequence,median seed-adjusted z-score
1,CGGUUAGAUUUGGACAGUATT against ARHGAP9,inactive: 0
2,GUACCACUGUAAGAAGAAATT against LBR,inactive: 0.303
3,GGAUCCCAGUGAAACGAAATT against IDI2,inactive: 0.578
4,GAGGUGAUCUUAGACCUGATT against QSOX2,inactive: 0.498
5,GGAUUUUCUUCCUAAACAATT against SOX21,inactive: -0.412
6,GGACAACCAAGUUUGGAAATT against FCRLA,inactive: 0.03
7,GAAUCUGCGCUACUAUGUATT against RASA2,inactive: -0.913
8,GGAACACCCGUUUAACAAATT against ASH2L,inactive: -0.464
9,CGCACAACGUGGAUAGGAATT against TGM7,inactive: 0.244
10,GCAUCGCAGUGCUAAACAUTT against DGKA,active: -1.36
11,UGAUGCUUCUGCGAGAUUATT against METTL2A,inactive: -0.49
12,GGGUGGUGGUUAUAAUACUTT against XK,inactive: 0.403
13,GGGAAAUACGGAGUACUUUTT against SLC35D2,inactive: -0.127
14,GGAGCAGCUUCGUACAUAUTT against DUSP19,inactive: 0.343
15,GGAUGAAAUAAUCCUAAUATT against SNX25,inactive: -0.26
16,GCACGUCUUCUGUCCAUUUTT against EFCAB6,inactive: 0.206
17,GCACUUCUCUUAAGGACGATT against UNC13B,inactive: -0.0216
18,GAACGUACCAGGGACUUAATT against TNC,inactive: -0.253
19,UGAAGAAUGCAGUUAAAUATT against CCL17,inactive: 0.178
20,CUACGAAUUUACUAUACUATT against ITPR1,inactive: -0.0888
21,GCUUAAGACGGGACAUGAATT against DHRS9,inactive: -0.0523
22,AGGACUGCAUUGUUUUCUATT against RHOC,inactive: -0.579
23,AGUACAUCGUGGUCCAAGATT against SRGAP2,inactive: 0.0323

row,Sequence,median seed-adjusted z-score
1,GGACUAUGUCUGCCUAUGATT against SCN7A,inactive: 0
2,GAAGCGAAAUUAGUGCGGATT against C1QBP,inactive: 0.754
3,UUACAUUGAUUACACUGGATT against RBM24,inactive: 0.0471
4,GCCGUAGAGAAGGAGCUGATT against DNASE1L1,inactive: 0.542
5,GACUCGCACUAUUCGCAGATT against BRF2,inactive: -0.00969
6,GCAGGUGUUUCAUGAAGAATT against PRPH2,inactive: 0.0931
7,GCUGACCAUUGGGACAGUATT against EZH2,inactive: 0.313
8,CCAUCUCCAUGGACCUGCATT against AP1B1,inactive: -0.161
9,CCGAGAAUCAAGAACUUAATT against ZCCHC8,inactive: 0.356
10,CCCUGCACGGCUACAUUGATT against LHX6,inactive: -0.717
11,GAACGAAUACGAAUGGACATT against MXI1,inactive: 0.348
12,CAGUCUGGGUGUAAUCGUATT against ZEB1,inactive: -0.163
13,GGAUAUAUGGAGGUGAUAATT against SLC6A6,inactive: 0.0448
14,CGCUCGAAAUUACACGGUATT against ADAM12,inactive: -0.343
15,GCACCAACCUGACCUGUCATT against CD33,inactive: -0.355
16,CACUGGAUGAAUUAGAUCATT against BUD31,inactive: 0.0554
17,GCCCGAGCGGAAUACUCAATT against EDAR,inactive: 0.137
18,GAACAGCUGGGAACCUUCATT against PPP2R1A,inactive: 0.973
19,GCAAGACCGAAGUAAACUATT against GPX4,active: -1.18
20,GGUGGUAUCAACUUACAUATT against DDX10,inactive: -0.968
21,CCAUAUUCCUAUACACGAATT against CPB2,inactive: -0.62
22,AGCUUAAGCUGGGUGAGAUTT against ARF1,inactive: -0.371
23,GAUCCAUACUUGGAUGAUATT against PAIP1,inactive: -0.0178

# Looked up one by one from the list above, 4 records:
row,Sequence,median seed-adjusted z-score
10,GCAUCGCAGUGCUAAACAUTT against DGKA,active: -1.36
21,CCAUAUUCCUAUACACGAATT against CPB2,inactive: -0.62
15,GCACCAACCUGACCUGUCATT against CD33,inactive: -0.355
17,GCACUUCUCUUAAGGACGATT against UNC13B,inactive: -0.0216

# Additional records follow.

row,Sequence,median seed-adjusted z-score
1,UGAUUGCACGAACAGCAAATT against MED21,active: -1.3
2,CCACUUCUCCACACCUUGATT against NR4A1,inactive: -0.207
3,GGCCAGGUAUUUCAGGUCATT against KLK3,inactive: 0.0191
4,GCACCUGAGAGUCUUCUUUTT against SLC8A2,inactive: 0
5,CGGUACUACCCAAACGUCATT against APOBEC3D,inactive: -0.0215
6,GAAUUGCUCCUAAUGUCAATT against MYB,inactive: 0.307
7,CAUCCAUGCUGACAACUGUTT against LEPREL1,inactive: 0.0654
8,CCCUAUCCAUGUUCCAUGUTT against HDAC10,inactive: -0.165
9,GGAAUGUCAUCUACGAAGATT against ERO1L,inactive: -0.251
10,GGUCUUUAGAGAUUCGAGATT against NPHP3,inactive: 0.239
11,GCAAACGGCUUAUGGGAUATT against RAD51L1,inactive: 0
12,GACUCAGACAUGCUACAUATT against LRRK1,inactive: 0.257
13,GGUUUCGUGUGGACCGUAATT against CADM4,inactive: 0.16
14,GCAUCUUUCUGAGUUCACUTT against SLC22A11,inactive: 0
15,GGCUGUCAUCAAUACCGUUTT against TMLHE,inactive: -0.241
16,GCACCGACAAGGAUGGAAATT against GRIP2,inactive: -0.0256
17,GAACAGUGUUUGUCAGCAUTT against ASAH2,inactive: 0.615
18,AGGACCAAAUGUCAAUUUATT against IL1RN,inactive: 0.283
19,GUUUAACCCAGGAAUCACATT against KNG1,inactive: 0
20,CCAUAUUCCUCAUGCAUGUTT against FCRL5,inactive: -0.138
21,GGAGUUUCCCAUACGAAUUTT against SPG3A,inactive: 0.203
22,GUUCAUCUCUUGUAAGGAUTT against CABP5,inactive: 0.372
23,GGAUUUCACUGUGAUCGAATT against DPYD,inactive: -0.112
